In paper PMC8435237, “Overexpressing the N‐terminus of CATALASE2 enhances plant jasmonic acid biosynthesis and resistance to necrotrophic pathogen Botrytis cinerea B05.10” (Molecular Plant Pathology, 2021):
These are yes or no findings as the source states them, for the method shown. For part of these data: Binding can be weak; no strength is given.

B1: acyl-CoA oxidase 2 (ACX2), in pGADT7 (enzyme, UniProt O65201 1-692)
chain: MESRREKNPMTEEESDGLIAARRIQRLSLHLSPSLTPSPSLPLVQTETCSARSKKLDVNGEALSLYMRGKHIDIQEKIFDFFNSRPDLQTPIEISKDDHRELCMNQLIGLVREAGVRPFRYVADDPEKYFAIMEAVGSVDMSLGIKMGVQYSLWGGSVINLGTKKHRDKYFDGIDNLDYTGCFAMTELHHGSNVQGLQTTATFDPLKDEFVIDTPNDGAIKWWIGNAAVHGKFATVFARLILPTHDSKGVSDMGVHAFIVPIRDMKTHQTLPGVEIQDCGHKVGLNGVDNGALRFRSVRIPRDNLLNRFGDVSRDGTYTSSLPTINKRFGATLGELVGGRVGLAYASVGVLKISATIAIRYSLLRQQFGPPKQPEVSILDYQSQQHKLMPMLASTYAYHFATVYLVEKYSEMKKTHDEQLVADVHALSAGLKSYVTSYTAKALSVCREACGGHGYAAVNRFGSLRNDHDIFQTFEGDNTVLLQQVAADLLKRYKEKFQGGTLTVTWSYLRESMNTYLSQPNPVTARWEGEDHLRDPKFQLDAFRYRTSRLLQNVAARLQKHSKTLGGFGAWNRCLNHLLTLAESHIETVILAKFIEAVKNCPDPSAKAALKLACDLYALDRIWKDIGTYRNVDYVAPNKAKAIHKLTEYLSFQVRNVAKELVDAFELPDHVTRAPIAMQSDAYSQYTQVVGF
B2: acyl-CoA oxidase 3 (ACX3), in pGADT7 (enzyme, UniProt P0CZ23 1-675)
chain: MSDNRALRRAHVLANHILQSNPPSSNPSLSRELCLQYSPPELNESYGFDVKEMRKLLDGHNVVDRDWIYGLMMQSNLFNRKERGGKIFVSPDYNQTMEQQREITMKRIWYLLENGVFKGWLTETGPEAELRKLALLEVCGIYDHSVSIKVGVHFFLWGNAVKFFGTKRHHEKWLKNTEDYVVKGCFAMTELGHGSNVRGIETVTTYDPKTEEFVINTPCESAQKYWIGGAANHATHTIVFSQLHINGTNQGVHAFIAQIRDQDGSICPNIRIADCGHKIGLNGVDNGRIWFDNLRIPRENLLNAVADVSSDGKYVSSIKDPDQRFGAFMAPLTSGRVTIASSAIYSAKVGLSIAIRYSLSRRAFSVTANGPEVLLLDYPSHQRRLLPLLAKTYAMSFAANELKMIYVKRTPETNKAIHVVSSGFKAVLTWHNMHTLQECREAVGGQGVKTENLVGQLKGEFDVQTTFEGDNNVLMQQVSKALFAEYVSCKKRNKPFKGLGLEHMNSPRPVLPTQLTSSTLRCSQFQTNVFCLRERDLLEQFTSEVAQLQGRGESREFSFLLSHQLAEDLGKAFTEKAILQTILDAEAKLPTGSVKDVLGLVRSMYALISLEEDPSLLRYGYLSQDNVGDVRREVSKLCGELRPHALALVTSFGIPDSFLSPIAFNWVEANAWSSV

What was measured:
Test in all cases: two-hybrid; yeast two-hybrid; CAT2 forms in pGBKT7, ACX2 and ACX3 in pGADT7; growth of yeast as in Yuan et al., 2017
[1] = molecular target: CAT2 C-terminus (CAT2-C), yeast two-hybrid construct (Arabidopsis thaliana)
[2] = molecular target: CAT2-N+H (N-terminus plus H-fragment of CAT2), yeast two-hybrid construct (Arabidopsis thaliana)
[3] = molecular target: truncated CAT2 N-terminus (CAT2-N), yeast two-hybrid construct (Arabidopsis thaliana)

| Binder | binding [1] | binding [2] | binding [3] |
| --- | --- | --- | --- |
| B1 | no binding | binds | binds |
| B2 | no binding | binds | binds |
